Results reported in patent US9023873B2, “Insecticidal 2-methoxybenzamide derivatives” (Syngenta Participations AG, priority 2011, dated 2015).
Some entries share one result that the patent states for a list of compounds.

How the values were obtained:
Type in all cases: in vivo
[1] = test system: Tetranychus urticae (Two-spotted spider mite); test: Tetranychus urticae bean leaf disc spray test; settings: 200 ppm spray on bean leaf discs, mite populations of mixed ages, 8 days; egg, larval and adult mortality
[2] = test system: Diabrotica balteata (Corn root worm); test: Diabrotica balteata larval test on artificial diet; settings: 200 ppm (concentration in well 18 ppm), L2 larvae, 5 days, larval mortality, growth regulation
[3] = test system: Heliothis virescens (Tobacco budworm); test: Heliothis virescens egg test on artificial diet; settings: 200 ppm (concentration in well 18 ppm), eggs 0-24 h old on artificial diet, 4 days; egg mortality, larval mortality, growth regulation
[4] = test system: Thrips tabaci (Onion thrips); test: Thrips tabaci sunflower leaf disc spray test; settings: 200 ppm spray on sunflower leaf discs, population of mixed ages, 7 days; mortality
[5] = test system: Myzus persicae (Green peach aphid); test: Myzus persicae sunflower leaf disc spray test; settings: 200 ppm spray on sunflower leaf discs, aphid population of mixed ages, 6 DAT; mortality
[6] = test system: Plutella xylostella (Diamond back moth); test: Plutella xylostella larval test on artificial diet; settings: 200 ppm (concentration in well 18 ppm), L2 larvae, 6 days, larval mortality, growth regulation
[7] = test system: Spodoptera littoralis (Egyptian cotton leafworm); test: Spodoptera littoralis cotton leaf disc spray test; settings: 200 ppm spray on cotton leaf discs, L1 larvae, mortality, feeding behavior, growth regulation 3 days after treatment

C=CCN(C(=O)c1cccc(NC(=O)c2ccncc2)c1OC)c1c(Cl)cc(C(F)(C(F)(F)F)C(F)(F)F)cc1Br [Compound D26]
at least 80%: control of Tetranychus urticae [1] | control of Diabrotica balteata [2] | control of Heliothis virescens [3] | control of Thrips tabaci [4] | control of Myzus persicae [5] | control of Plutella xylostella [6] | control of Spodoptera littoralis [7]

C=CCN(C(=O)c1ccncc1)c1cccc(C(=O)Nc2c(Cl)cc(C(F)(C(F)(F)F)C(F)(F)F)cc2Br)c1OC [Compound D28]
at least 80%: control of Tetranychus urticae [1] | control of Diabrotica balteata [2] | control of Heliothis virescens [3] | control of Thrips tabaci [4] | control of Myzus persicae [5] | control of Plutella xylostella [6] | control of Spodoptera littoralis [7]

C=CCN(C(=O)c1cc[n+]([O-])cc1)c1cccc(C(=O)Nc2c(Cl)cc(C(F)(C(F)(F)F)C(F)(F)F)cc2Br)c1OC [Compound D30]
at least 80%: control of Tetranychus urticae [1] | control of Diabrotica balteata [2] | control of Heliothis virescens [3] | control of Thrips tabaci [4] | control of Myzus persicae [5] | control of Plutella xylostella [6] | control of Spodoptera littoralis [7]

COc1c(NC(=O)c2ccncc2)cccc1C(=O)Nc1c(Br)cc(C(F)(C(F)(F)F)C(F)(F)F)cc1Br [Compound G1]
at least 80%: control of Tetranychus urticae [1] | control of Diabrotica balteata [2] | control of Heliothis virescens [3] | control of Thrips tabaci [4] | control of Myzus persicae [5] | control of Plutella xylostella [6] | control of Spodoptera littoralis [7]

COc1c(NC(=O)c2ccnc(Cl)c2)cccc1C(=O)Nc1c(Br)cc(C(F)(C(F)(F)F)C(F)(F)F)cc1Br [Compound G2]
at least 80%: control of Tetranychus urticae [1] | control of Diabrotica balteata [2] | control of Heliothis virescens [3] | control of Thrips tabaci [4] | control of Myzus persicae [5] | control of Plutella xylostella [6] | control of Spodoptera littoralis [7]

COc1c(NC(=O)c2cc[n+]([O-])cc2)cccc1C(=O)Nc1c(Br)cc(C(F)(C(F)(F)F)C(F)(F)F)cc1Br [Compound G3]
at least 80%: control of Tetranychus urticae [1] | control of Diabrotica balteata [2] | control of Heliothis virescens [3] | control of Thrips tabaci [4] | control of Myzus persicae [5] | control of Plutella xylostella [6] | control of Spodoptera littoralis [7]

CCN(C(=O)c1ccncc1)c1cccc(C(=O)Nc2c(Br)cc(C(F)(C(F)(F)F)C(F)(F)F)cc2Br)c1OC [Compound G4]
at least 80%: control of Tetranychus urticae [1] | control of Diabrotica balteata [2] | control of Heliothis virescens [3] | control of Thrips tabaci [4] | control of Myzus persicae [5] | control of Plutella xylostella [6] | control of Spodoptera littoralis [7]

CCN(C(=O)c1cc[n+]([O-])cc1)c1cccc(C(=O)Nc2c(Br)cc(C(F)(C(F)(F)F)C(F)(F)F)cc2Br)c1OC [Compound G5]
at least 80%: control of Tetranychus urticae [1] | control of Diabrotica balteata [2] | control of Heliothis virescens [3] | control of Thrips tabaci [4] | control of Myzus persicae [5] | control of Plutella xylostella [6] | control of Spodoptera littoralis [7]

COc1c(NC(=O)c2cccnc2)cccc1C(=O)Nc1c(Br)cc(C(F)(C(F)(F)F)C(F)(F)F)cc1Br [Compound G6]
at least 80%: control of Tetranychus urticae [1] | control of Diabrotica balteata [2] | control of Heliothis virescens [3] | control of Thrips tabaci [4] | control of Myzus persicae [5] | control of Plutella xylostella [6] | control of Spodoptera littoralis [7]

COc1c(NC(=O)c2cncc(Cl)c2)cccc1C(=O)Nc1c(Br)cc(C(F)(C(F)(F)F)C(F)(F)F)cc1Br [Compound G7]
at least 80%: control of Tetranychus urticae [1] | control of Diabrotica balteata [2] | control of Heliothis virescens [3] | control of Thrips tabaci [4] | control of Myzus persicae [5] | control of Plutella xylostella [6] | control of Spodoptera littoralis [7]

COc1c(NC(=O)c2cc(Cl)c[n+]([O-])c2)cccc1C(=O)Nc1c(Br)cc(C(F)(C(F)(F)F)C(F)(F)F)cc1Br [Compound G9]
at least 80%: control of Tetranychus urticae [1] | control of Diabrotica balteata [2] | control of Heliothis virescens [3] | control of Thrips tabaci [4] | control of Myzus persicae [5] | control of Plutella xylostella [6] | control of Spodoptera littoralis [7]

CCN(C(=O)c1cncc(Cl)c1)c1cccc(C(=O)Nc2c(Br)cc(C(F)(C(F)(F)F)C(F)(F)F)cc2Br)c1OC [Compound G10]
at least 80%: control of Tetranychus urticae [1] | control of Diabrotica balteata [2] | control of Heliothis virescens [3] | control of Thrips tabaci [4] | control of Myzus persicae [5] | control of Plutella xylostella [6] | control of Spodoptera littoralis [7]

CCN(C(=O)c1cccnc1)c1cccc(C(=O)Nc2c(Br)cc(C(F)(C(F)(F)F)C(F)(F)F)cc2Br)c1OC [Compound G11]
at least 80%: control of Tetranychus urticae [1] | control of Diabrotica balteata [2] | control of Heliothis virescens [3] | control of Thrips tabaci [4] | control of Myzus persicae [5] | control of Plutella xylostella [6] | control of Spodoptera littoralis [7]

CCN(C(=O)c1ccc[n+]([O-])c1)c1cccc(C(=O)Nc2c(Br)cc(C(F)(C(F)(F)F)C(F)(F)F)cc2Br)c1OC [Compound G13]
at least 80%: control of Tetranychus urticae [1] | control of Diabrotica balteata [2] | control of Heliothis virescens [3] | control of Thrips tabaci [4] | control of Myzus persicae [5] | control of Plutella xylostella [6] | control of Spodoptera littoralis [7]

COc1c(C(=O)Nc2c(Br)cc(C(F)(C(F)(F)F)C(F)(F)F)cc2Br)cccc1N(C)C(=O)c1ccncc1 [Compound G14, N-[3-[[2,6-dibromo-4-[1,2,2,2-tetrafluoro-1-(trifluoromethyl)ethyl]phenyl]carbamoyl]-2-methoxy-phenyl]-N-methyl-pyridine-4-carboxamide]
at least 80%: control of Tetranychus urticae [1] | control of Diabrotica balteata [2] | control of Heliothis virescens [3] | control of Thrips tabaci [4] | control of Myzus persicae [5] | control of Plutella xylostella [6] | control of Spodoptera littoralis [7]

COc1c(C(=O)Nc2c(Br)cc(C(F)(C(F)(F)F)C(F)(F)F)cc2Br)cccc1N(C)C(=O)c1cc[n+]([O-])cc1 [Compound G15]
at least 80%: control of Tetranychus urticae [1] | control of Diabrotica balteata [2] | control of Heliothis virescens [3] | control of Thrips tabaci [4] | control of Myzus persicae [5] | control of Plutella xylostella [6] | control of Spodoptera littoralis [7]

COc1c(C(=O)Nc2c(Br)cc(C(F)(C(F)(F)F)C(F)(F)F)cc2Br)cccc1N(C)C(=O)c1cccnc1 [Compound G23]
at least 80%: control of Tetranychus urticae [1] | control of Diabrotica balteata [2] | control of Heliothis virescens [3] | control of Thrips tabaci [4] | control of Myzus persicae [5] | control of Plutella xylostella [6] | control of Spodoptera littoralis [7]

COc1c(C(=O)Nc2c(Br)cc(C(F)(C(F)(F)F)C(F)(F)F)cc2Br)cccc1N(C)C(=O)c1ccc[n+]([O-])c1 [Compound G24]
at least 80%: control of Tetranychus urticae [1] | control of Diabrotica balteata [2] | control of Heliothis virescens [3] | control of Thrips tabaci [4] | control of Myzus persicae [5] | control of Plutella xylostella [6] | control of Spodoptera littoralis [7]

COc1c(NC(=O)c2ccncc2)cccc1C(=O)Nc1c(C)cc(C(F)(C(F)(F)F)C(F)(F)F)cc1Br [Compound H2]
at least 80%: control of Tetranychus urticae [1] | control of Diabrotica balteata [2] | control of Heliothis virescens [3] | control of Thrips tabaci [4] | control of Myzus persicae [5] | control of Plutella xylostella [6] | control of Spodoptera littoralis [7]

CCc1cc(C(F)(C(F)(F)F)C(F)(F)F)cc(Br)c1NC(=O)c1cccc(NC(=O)c2ccncc2)c1OC [Compound J1]
at least 80%: control of Tetranychus urticae [1] | control of Diabrotica balteata [2] | control of Heliothis virescens [3] | control of Thrips tabaci [4] | control of Myzus persicae [5] | control of Plutella xylostella [6] | control of Spodoptera littoralis [7]
